{
  "source": "patent EP2628479A1",
  "about": "“Cosmetic use of climbazol” (Henkel AG&Co. KGAA, priority 2011, dated 2013)",
  "key": {"[1]": {"test_system": "CYP26A1", "assay": "Identification as RAMBA: qPCR of CYP26A1 expression change in keratinocytes incubated with substance plus retinoic acid"}, "[2]": {"test_system": "Hautfalten", "assay": "Skin treatment with Climbazol in a topical carrier, visible wrinkle reduction (no method described)", "format": "in vivo", "conditions": "Climbazol in a topical carrier on skin"}, "[3]": {"test_system": "Co-Kultur-System", "assay": "Collagen neosynthesis in co-culture system (2D fibroblast culture with 3D epidermis model insert), P1 NP secreted into the medium", "format": "cell-based", "conditions": "statement in words on Tabelle 2", "excerpt": "Zum Nachweis der Kollagen-Neusynthese wurde ein Co-Kultur-System verwendet, das aus einer zweidimensionalen Fibroblasten-Kultur besteht, auf die in einem Insert ein dreidimensionales Epidermismodell aufgesetzt wurde. Über das Nährmedium kann ein Stoffaustausch zwischen den Fibroblasten und den Keratinocyten des Epidermismodells erfolgen.\nAls Kontrollen für die Syntheseinduktion wurden Retinsäure und Retinol eingesetzt."}},
  "note": "For at least one compound, name, drawing or mass did not settle the structure.",
  "data": [
    {"smiles": "CC(C)(C)C(=O)C(Oc1ccc(Cl)cc1)n1ccnc1", "note": "(stereo not shown) [Climbazol, Imidazolyl-1-(4-chlorophenoxy)-3,3-dimethylbutane-2-one]", "values": [
      {"measurement": "RAMBA-Aktivität", "setting": "[1]; compared with Ketokonazol, statement in words", "value": "in etwa die gleiche RAMBA-Aktivität wie Ketokonazol"},
      {"measurement": "Induktion von CYP26A1", "setting": "[1]; in combination with Retinsäure, statement in words on Tabelle 1", "value": "deutlich vermindert"},
      {"measurement": "Hautfalten sichtbar reduziert", "setting": "[2]", "value": "2 von 3 Falten werden reduziert"},
      {"measurement": "Kollagensynthese", "setting": "[3]", "value": "Induktion der Kollagensynthese"}
    ]}
  ]
}
